In the supplement of paper PMC10849652:
The list shows a part of the results.

Chains of the proteins cited; added tags and fusions are not shown. Lines headed by an entry give the natural chain unless they say otherwise; changes in a name come on top.
UniProt Q5UCC4: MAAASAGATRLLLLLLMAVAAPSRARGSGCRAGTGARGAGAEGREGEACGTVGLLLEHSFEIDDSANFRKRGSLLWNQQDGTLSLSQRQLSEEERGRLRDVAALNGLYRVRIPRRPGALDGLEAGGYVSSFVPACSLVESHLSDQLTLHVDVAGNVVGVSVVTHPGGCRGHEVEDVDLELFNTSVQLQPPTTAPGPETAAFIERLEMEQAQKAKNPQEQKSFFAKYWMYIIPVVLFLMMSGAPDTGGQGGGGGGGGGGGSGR
UniProt Q9UI10, whole entry, looked up: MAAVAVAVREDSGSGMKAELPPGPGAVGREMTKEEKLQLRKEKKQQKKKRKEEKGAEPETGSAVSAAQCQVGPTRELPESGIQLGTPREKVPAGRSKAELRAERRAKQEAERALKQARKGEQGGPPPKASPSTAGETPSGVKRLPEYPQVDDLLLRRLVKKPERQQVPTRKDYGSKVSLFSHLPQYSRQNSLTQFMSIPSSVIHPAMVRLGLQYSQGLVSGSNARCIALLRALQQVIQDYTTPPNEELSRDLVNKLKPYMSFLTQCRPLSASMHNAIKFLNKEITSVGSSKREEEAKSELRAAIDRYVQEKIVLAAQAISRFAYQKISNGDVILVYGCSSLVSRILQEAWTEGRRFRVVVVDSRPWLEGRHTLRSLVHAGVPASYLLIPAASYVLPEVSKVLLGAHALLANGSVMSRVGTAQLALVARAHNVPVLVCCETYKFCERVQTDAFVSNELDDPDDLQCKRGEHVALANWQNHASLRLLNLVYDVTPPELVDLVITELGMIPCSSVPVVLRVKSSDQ
UniProt Q96RQ1: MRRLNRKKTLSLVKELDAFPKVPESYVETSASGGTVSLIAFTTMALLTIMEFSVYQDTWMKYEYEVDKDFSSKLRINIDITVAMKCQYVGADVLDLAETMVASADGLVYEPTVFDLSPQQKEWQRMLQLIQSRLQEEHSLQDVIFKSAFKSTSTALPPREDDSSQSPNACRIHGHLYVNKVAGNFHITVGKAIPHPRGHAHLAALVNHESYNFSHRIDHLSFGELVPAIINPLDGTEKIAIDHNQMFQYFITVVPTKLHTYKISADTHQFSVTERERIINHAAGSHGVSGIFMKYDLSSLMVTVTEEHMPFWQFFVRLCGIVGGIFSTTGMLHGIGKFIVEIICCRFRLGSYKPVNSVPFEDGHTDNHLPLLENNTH
UniProt Q96RT1: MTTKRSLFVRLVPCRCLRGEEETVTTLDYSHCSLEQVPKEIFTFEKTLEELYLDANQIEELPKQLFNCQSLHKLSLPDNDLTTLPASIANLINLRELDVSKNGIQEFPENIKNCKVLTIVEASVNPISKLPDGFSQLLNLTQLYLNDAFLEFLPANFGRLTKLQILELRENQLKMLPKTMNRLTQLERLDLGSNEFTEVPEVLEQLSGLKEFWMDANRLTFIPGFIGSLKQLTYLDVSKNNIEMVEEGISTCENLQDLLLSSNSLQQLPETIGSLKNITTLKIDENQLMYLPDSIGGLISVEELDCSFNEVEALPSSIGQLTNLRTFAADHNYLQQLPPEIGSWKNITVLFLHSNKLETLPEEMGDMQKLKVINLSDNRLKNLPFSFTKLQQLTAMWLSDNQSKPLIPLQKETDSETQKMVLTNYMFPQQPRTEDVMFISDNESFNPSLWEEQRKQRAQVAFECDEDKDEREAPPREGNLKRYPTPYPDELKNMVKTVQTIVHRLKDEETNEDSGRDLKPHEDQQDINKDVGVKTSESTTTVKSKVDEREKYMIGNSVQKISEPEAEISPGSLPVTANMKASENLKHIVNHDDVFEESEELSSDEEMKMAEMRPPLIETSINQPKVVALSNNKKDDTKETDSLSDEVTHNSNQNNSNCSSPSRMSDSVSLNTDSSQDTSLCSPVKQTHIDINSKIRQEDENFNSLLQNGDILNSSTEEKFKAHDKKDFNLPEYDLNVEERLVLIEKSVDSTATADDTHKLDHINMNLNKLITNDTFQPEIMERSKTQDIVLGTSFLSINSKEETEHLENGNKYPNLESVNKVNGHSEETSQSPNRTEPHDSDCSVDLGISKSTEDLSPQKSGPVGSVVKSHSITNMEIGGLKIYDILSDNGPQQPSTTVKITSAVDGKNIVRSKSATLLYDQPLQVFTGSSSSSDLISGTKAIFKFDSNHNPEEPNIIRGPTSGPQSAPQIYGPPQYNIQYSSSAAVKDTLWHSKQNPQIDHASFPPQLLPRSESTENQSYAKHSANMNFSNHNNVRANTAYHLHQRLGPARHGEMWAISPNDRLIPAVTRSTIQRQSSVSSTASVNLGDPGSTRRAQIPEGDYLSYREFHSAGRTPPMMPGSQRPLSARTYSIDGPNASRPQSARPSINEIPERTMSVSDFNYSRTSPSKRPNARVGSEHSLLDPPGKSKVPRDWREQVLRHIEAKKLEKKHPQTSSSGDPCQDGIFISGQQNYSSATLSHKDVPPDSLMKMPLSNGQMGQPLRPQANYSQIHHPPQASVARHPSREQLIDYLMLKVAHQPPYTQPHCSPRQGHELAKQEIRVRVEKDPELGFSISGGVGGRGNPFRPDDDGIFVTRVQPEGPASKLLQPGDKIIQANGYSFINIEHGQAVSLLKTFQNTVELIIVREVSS
UniProt Q8TE02: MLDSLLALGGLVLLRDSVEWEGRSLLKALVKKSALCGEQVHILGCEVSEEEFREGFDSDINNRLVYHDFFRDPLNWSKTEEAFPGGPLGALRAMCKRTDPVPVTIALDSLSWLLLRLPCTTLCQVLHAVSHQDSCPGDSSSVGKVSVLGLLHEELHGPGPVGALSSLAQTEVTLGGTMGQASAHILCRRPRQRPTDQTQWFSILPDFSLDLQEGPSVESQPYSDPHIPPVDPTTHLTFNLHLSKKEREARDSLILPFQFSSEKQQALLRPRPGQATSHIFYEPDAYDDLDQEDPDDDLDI
UniProt P54852: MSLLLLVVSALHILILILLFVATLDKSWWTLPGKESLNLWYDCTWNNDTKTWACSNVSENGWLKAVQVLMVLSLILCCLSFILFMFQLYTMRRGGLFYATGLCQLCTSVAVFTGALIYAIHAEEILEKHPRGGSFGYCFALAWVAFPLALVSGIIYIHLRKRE
UniProt Q13347, whole entry, looked up: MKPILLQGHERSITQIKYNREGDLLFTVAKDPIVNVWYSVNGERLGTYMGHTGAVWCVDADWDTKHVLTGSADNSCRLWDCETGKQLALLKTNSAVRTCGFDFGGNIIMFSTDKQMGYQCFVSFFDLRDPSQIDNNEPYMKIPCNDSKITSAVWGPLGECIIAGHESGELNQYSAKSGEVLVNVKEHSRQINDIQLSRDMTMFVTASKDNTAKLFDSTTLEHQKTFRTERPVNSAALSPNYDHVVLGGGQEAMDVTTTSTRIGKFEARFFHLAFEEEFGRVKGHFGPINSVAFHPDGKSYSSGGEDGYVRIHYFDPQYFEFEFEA
UniProt P55199: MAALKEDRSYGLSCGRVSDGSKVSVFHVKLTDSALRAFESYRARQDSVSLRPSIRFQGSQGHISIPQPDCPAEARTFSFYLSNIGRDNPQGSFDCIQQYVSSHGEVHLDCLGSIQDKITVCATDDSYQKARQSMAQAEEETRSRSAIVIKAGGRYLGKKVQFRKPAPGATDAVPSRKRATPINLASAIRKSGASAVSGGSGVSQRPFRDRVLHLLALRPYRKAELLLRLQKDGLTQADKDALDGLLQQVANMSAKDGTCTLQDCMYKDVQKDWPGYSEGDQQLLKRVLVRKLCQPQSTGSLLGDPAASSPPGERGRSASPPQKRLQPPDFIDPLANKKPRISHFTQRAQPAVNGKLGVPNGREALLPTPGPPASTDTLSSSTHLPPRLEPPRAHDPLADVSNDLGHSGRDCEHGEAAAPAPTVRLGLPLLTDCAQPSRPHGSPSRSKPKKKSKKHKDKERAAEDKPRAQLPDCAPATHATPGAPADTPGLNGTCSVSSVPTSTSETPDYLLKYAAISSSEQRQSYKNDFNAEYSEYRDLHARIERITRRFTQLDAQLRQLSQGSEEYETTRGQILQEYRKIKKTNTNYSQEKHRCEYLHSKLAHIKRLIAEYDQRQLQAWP
UniProt P34913, whole entry, looked up: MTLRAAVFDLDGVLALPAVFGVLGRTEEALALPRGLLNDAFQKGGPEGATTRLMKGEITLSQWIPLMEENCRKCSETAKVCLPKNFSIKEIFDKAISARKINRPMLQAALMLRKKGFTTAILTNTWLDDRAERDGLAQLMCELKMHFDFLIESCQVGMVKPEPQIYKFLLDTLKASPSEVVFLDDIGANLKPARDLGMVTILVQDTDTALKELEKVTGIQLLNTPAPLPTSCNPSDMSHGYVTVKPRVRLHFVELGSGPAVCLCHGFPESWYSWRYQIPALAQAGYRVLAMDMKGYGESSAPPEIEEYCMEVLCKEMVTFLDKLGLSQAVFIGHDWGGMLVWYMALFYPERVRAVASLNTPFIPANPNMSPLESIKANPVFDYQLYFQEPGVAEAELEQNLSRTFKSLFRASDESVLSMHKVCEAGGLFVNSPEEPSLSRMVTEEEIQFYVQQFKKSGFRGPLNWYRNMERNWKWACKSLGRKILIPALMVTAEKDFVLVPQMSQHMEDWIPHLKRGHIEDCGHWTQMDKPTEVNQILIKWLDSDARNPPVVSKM
UniProt P20042, whole entry, looked up: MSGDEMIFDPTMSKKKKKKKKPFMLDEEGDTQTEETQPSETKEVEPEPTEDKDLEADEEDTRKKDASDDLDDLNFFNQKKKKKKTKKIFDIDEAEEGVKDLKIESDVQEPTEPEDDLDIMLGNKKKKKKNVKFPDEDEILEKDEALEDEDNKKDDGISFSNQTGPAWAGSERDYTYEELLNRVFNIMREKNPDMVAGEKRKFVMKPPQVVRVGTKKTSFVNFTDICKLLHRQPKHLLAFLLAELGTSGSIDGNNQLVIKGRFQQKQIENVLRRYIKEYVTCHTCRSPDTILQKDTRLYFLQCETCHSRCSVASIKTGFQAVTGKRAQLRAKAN
UniProt O75822, whole entry, looked up: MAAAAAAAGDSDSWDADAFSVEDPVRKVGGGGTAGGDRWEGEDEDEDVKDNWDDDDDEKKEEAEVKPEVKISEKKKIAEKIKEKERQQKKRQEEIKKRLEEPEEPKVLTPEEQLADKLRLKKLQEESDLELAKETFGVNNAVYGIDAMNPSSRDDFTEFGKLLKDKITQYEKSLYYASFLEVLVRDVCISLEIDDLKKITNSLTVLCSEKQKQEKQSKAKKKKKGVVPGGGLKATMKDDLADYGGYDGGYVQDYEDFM
UniProt O43768: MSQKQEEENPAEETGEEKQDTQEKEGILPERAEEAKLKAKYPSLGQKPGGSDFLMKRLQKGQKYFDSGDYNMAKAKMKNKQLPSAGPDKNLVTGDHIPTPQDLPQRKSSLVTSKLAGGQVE
UniProt O75821, whole entry, looked up: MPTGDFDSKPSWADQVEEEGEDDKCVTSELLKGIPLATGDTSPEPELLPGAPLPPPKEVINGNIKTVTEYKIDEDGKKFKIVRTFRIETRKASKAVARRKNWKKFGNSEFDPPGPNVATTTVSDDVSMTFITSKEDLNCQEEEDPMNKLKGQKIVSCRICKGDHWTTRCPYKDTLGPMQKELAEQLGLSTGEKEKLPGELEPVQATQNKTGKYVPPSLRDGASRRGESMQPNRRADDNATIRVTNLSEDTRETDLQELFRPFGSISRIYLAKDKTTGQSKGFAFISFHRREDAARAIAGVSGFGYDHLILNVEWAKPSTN
UniProt Q9H4G0, whole entry, looked up: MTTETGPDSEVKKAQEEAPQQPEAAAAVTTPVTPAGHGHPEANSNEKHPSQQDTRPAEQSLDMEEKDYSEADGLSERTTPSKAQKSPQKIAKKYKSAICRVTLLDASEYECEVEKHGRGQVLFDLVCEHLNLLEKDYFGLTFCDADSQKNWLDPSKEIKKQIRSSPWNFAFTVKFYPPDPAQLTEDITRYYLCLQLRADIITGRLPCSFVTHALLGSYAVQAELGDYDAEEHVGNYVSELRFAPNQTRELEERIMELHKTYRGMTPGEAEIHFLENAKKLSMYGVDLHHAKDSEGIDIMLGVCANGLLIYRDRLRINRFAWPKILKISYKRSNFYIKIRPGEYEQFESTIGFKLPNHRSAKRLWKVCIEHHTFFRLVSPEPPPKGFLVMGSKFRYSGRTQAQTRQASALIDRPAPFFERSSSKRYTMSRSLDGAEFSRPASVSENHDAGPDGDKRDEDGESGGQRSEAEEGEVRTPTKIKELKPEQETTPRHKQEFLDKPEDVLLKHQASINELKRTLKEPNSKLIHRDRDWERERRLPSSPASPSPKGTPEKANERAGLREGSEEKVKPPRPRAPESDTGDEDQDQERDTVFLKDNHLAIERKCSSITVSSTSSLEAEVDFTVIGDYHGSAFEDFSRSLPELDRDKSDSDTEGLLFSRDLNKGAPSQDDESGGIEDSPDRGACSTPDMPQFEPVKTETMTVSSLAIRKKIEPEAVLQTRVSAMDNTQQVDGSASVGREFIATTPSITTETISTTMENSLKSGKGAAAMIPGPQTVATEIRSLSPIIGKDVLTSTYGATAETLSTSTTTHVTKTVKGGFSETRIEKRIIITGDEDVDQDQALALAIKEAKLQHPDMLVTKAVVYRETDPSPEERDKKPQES
UniProt Q9NPA8: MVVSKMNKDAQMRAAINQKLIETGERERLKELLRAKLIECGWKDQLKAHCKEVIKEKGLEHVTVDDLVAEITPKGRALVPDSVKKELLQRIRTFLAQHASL

compound: Cc1cn(-c2cc(NC(=O)c3ccc(C)c(Nc4nccc(-c5cccnc5)n4)c3)cc(C(F)(F)F)c2)cn1 [nilotinib]; test: log2 fold change, soluble protein after heating vs DMSO (PISA); higher = thermal stabilisation; K562 lysate, 10 uM; active = over 0.2 and 3.5 SD of the protein, either way, in both replicates (recomputed)
Procedure, shortened: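 K562 pellets were dounce-homogenised in PBS pH 7.4 with 1 mM MgCl2, and the crude extract at 1 mg/mL protein was treated with 10 μM compound for 30 min. Aliquots were heated for 3 min across 48°C-58°C, pooled, and brought to 0.5% NP-40 at 4°C; soluble protein was the supernatant after 21,000xg for 90 min. Soluble protein was quantified by TMTpro 16plex LC-MS/MS with channel sums equalised, and reported as log2 fold change in thermal stability against DMSO controls, with values from duplicates.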

log2 fold change, inactive:
EPN1 (UniProt Q9Y6I3) 0.008, EMC3 (UniProt Q9P0I2) 0.01, EIF3K (UniProt Q9UBQ5) 0.009, EMC1 (UniProt Q8N766) 0.014, EMC10 (UniProt Q5UCC4) 0.019, ELP4 (UniProt Q96EB1) 0.022, EPB41L2 (UniProt O43491) 0.008, EIF2B4 (UniProt Q9UI10) 0.053, EPHX1 (UniProt P07099) -0.018, ERGIC2 (UniProt Q96RQ1) 0.007, ERBIN isoform 8 (UniProt Q96RT1) 0.012, EIF3A (UniProt Q14152) -0.006, ELP1 (UniProt O95163) 0.004, ELP5 isoform 4 (UniProt Q8TE02) 0.006, EMP3 (UniProt P54852) 0.007, ELOB (UniProt Q15370) -0.005, EIF2B5 (UniProt Q13144) -0.004, ELAC2 (UniProt Q9BQ52) 0.01, ERCC6L (UniProt Q2NKX8) 0.025, EPS15L1 isoform 2 (UniProt Q9UBC2) 0.005, EMC4 (UniProt Q5J8M3) 0, EIF3I (UniProt Q13347) 0.022, EIF3C (UniProt Q99613) -0.03, ELL (UniProt P55199) -0.021, EPHX2 (UniProt P34913) 0.097, ENTPD5 (UniProt O75356) 0.092, EIF2S2 (UniProt P20042) -0.012, EIF3J (UniProt O75822) 0, ENSA isoform 3 (UniProt O43768) -0.022, EIF3G (UniProt O75821) 0, ERCC2 (UniProt P18074) -0.036, EIF4G1 (UniProt Q04637) -0.003, EIF3M (UniProt Q7L2H7) 0.025, EPB41L1 (UniProt Q9H4G0) -0.025, ENY2 (UniProt Q9NPA8) -0.054
